This data set has as its system T1, R2 protein (R2Bm reverse transcriptase/endonuclease) (Bombyx mori).
T1 sequence (limits assumed): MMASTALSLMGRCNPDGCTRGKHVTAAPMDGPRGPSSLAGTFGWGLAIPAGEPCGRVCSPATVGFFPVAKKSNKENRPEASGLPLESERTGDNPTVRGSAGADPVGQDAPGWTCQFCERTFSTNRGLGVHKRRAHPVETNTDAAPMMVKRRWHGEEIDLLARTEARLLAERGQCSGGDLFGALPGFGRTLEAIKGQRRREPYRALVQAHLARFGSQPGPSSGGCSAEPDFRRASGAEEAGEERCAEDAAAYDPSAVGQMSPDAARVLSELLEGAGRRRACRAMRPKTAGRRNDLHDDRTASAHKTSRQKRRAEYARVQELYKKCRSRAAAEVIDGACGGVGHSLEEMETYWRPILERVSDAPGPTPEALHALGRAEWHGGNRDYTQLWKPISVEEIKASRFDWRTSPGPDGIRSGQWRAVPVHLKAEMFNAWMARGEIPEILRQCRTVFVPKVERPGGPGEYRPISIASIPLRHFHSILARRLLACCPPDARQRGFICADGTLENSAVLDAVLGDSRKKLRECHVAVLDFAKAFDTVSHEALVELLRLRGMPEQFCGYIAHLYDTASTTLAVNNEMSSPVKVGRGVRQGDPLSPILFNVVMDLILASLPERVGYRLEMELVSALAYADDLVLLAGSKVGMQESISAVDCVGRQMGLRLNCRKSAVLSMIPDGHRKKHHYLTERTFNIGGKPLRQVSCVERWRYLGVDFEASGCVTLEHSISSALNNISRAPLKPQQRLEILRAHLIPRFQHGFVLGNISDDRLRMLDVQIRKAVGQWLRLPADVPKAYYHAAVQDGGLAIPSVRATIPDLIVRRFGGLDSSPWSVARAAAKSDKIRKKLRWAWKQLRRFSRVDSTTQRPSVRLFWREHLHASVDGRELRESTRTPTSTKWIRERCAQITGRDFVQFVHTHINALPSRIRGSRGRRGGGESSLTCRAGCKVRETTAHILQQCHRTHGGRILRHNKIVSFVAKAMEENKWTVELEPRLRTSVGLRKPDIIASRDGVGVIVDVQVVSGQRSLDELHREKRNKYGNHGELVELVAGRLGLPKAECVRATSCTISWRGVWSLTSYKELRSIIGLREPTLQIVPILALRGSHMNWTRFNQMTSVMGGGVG
Put plainly: activity assay. The settings on record: acceptor of template jump from R2 RNA; did not support R2 RNA shift in EMSA (FIG. 8A lane 3); purified recombinant protein; single-stranded DNA. For orientation: Mobility shift assays separate free from complexed probe on a gel.

Protein sequences can lack the tags named with them.

“CGACGGCCAGTGCCAAGCTTGCATGCCTGCAGGTCGACTCTAGAGGATCC [AB.17 50 nt ssDNA]”: the “activity on this sequence” value is given as “active”.
